Test results: publication doi:10.1101/828806

Chains of the proteins cited; added tags and fusions are not shown. Lines headed by an entry give the natural chain unless they say otherwise; changes in a name come on top.
UniProt P18206: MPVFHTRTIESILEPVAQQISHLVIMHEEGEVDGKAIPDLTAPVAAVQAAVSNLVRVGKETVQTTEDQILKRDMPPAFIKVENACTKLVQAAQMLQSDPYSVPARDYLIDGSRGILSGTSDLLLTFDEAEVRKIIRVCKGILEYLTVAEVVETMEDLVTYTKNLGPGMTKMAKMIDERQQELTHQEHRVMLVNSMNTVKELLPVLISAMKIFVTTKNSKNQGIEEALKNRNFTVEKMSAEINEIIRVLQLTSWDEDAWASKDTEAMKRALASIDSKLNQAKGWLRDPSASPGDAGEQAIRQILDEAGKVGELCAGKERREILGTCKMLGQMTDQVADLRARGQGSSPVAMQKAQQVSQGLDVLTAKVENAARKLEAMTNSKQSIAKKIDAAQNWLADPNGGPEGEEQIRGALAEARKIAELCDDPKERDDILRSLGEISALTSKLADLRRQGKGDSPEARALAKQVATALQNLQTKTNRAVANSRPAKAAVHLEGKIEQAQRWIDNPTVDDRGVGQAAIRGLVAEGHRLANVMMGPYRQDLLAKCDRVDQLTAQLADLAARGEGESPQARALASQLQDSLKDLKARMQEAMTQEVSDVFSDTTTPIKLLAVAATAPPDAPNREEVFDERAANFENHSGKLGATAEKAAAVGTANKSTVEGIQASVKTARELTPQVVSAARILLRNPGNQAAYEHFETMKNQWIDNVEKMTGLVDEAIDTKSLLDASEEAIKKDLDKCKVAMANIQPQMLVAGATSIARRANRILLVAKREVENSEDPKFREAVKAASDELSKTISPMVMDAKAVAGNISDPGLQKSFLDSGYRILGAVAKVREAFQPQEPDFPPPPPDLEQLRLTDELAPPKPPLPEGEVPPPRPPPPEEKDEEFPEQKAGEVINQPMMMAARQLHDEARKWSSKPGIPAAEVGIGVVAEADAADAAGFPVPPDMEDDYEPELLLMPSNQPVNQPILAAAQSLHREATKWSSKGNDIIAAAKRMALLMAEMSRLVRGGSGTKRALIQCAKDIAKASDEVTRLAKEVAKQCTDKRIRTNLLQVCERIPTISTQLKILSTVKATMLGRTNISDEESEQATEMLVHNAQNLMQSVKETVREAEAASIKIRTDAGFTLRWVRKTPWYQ
UniProt Q9UGP4: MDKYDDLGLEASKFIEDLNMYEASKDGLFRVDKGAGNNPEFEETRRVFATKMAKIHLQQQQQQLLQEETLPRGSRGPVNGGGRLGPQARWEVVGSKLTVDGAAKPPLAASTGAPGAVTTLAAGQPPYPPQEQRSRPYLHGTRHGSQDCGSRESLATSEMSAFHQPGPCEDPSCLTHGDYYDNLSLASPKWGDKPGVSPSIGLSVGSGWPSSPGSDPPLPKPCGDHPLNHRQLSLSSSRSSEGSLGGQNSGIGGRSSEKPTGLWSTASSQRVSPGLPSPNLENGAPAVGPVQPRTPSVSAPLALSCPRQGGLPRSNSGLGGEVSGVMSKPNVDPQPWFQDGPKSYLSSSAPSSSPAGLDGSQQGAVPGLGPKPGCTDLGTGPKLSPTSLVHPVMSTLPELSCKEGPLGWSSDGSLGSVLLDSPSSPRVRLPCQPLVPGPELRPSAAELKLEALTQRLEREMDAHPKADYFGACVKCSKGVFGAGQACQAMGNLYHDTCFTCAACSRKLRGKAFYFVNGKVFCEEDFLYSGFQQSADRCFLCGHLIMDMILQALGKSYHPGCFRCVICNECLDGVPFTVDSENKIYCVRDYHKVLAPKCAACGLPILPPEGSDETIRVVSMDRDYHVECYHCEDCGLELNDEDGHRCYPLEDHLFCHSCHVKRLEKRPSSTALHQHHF

Target: vinculin-AcGFP (human) (UniProt P18206)
Assay: co-IP

Limd1-mCherry (from UniProt Q9UGP4 1-676)
binding: binds

These are yes or no findings as the source states them, for the method shown. Binding seen in cells or lysates may run through a third protein. Binding can be weak; no strength is given.
